Patent US20260055187A1

Biological target: His-tagged extracellular domain of cynomolgus PD-1 (cynomolgus)
Experiment: ELISA, His-tagged extracellular domain on plate

Row | binding | Binder
1 | binds | PD-1 antibody 1-28 (antibody, V domains shown) VH: EVQLVQSGAEVKKPGASVKVSCKASGYRFTSYGISWVRQAPGQGLEWMGWISAYNGNTNYAQKLQGRVTMTTDTSTNTAYMELRSLRSDDTAVYYCARDADYSSGSGYWGQGTLVTVSS VL: SYELTQPPSVSVSPGQTARITCSGDALPKQYAYWYQQKPGQAPVMVIYKDTERPSGIPERFSGSSSGTKVTLTISGVQAEDEADYYCQSADNSITYRVFGGGTKVTVL
2 | binds | PD-1 antibody 3H4 (antibody, V domains shown) VH: QIQLQQSGPELVKPGASVKISCKASGYTFTDYYINWVKQKPGQGLEWIGWIYPGSVNTKYNEKFRGKATLTVDTSSSTAYIQLSGLTSEDTAVYFCARYSNWFFDVWGAGTAVTVS VL: DIVMTQSPSSLSASLGERVSLTCRASQEISGYLSWLQQKPDGTIKRLIYAASTLDSGVPKRFSGSRSGSDYSLSISSLESEDFADYYCLQYASYPYTFGGGTKLEIKR
3 | binds | PD-1 antibody 1-17 (antibody, V domains shown) VH: QVQLQESGPGVVKPSGTLSLTCAISGGSIGSGGSIRSTRWWSWVRQSPGKGLEWIGEIYHSGSTNYNPSLKSRVTISLDKSRNHFSLRLNSVTAADTAVYYCARQDYGDSGDWYFDLWGKGTMVTVSS VL: NFMLTQPHSVSESPGKTVTISCTRSSGSIASNSVQWYQQRPGSSPTTVIYEDNQRPSGVPDRFSGSIDSSSNSASLTVSGLKTEDEADYYCQSSDSSAVVFGSGTKLTVL
4 | binds | PD-1 antibody 1-33 (antibody, V domains shown) VH: QVQLVQSGAEVKKPGASVRVSCKASGYTLTSYYIHWVRQAPGQGLEWMGIINPRGATISYAQKFQGRVTMTRDTSTSTVYMELRNLKSEDTALYYCATAGIYGFDFDYWGRGTLVTVSS VL: QSALTQPASVSGSPGQSITISCTGTSNDVGGYNYVSWYQHHPGKAPKLIIYDVTNRPSGVSDRFSGSKSGNTASLTISGLLAEDEGDYYCSSYTIVTNFEVLFGGGTKLTV

Results are given in words; binding and its absence hold for the method and conditions named. Binding calls can cover weak binding; strength is not graded here.
